This note sets out measurements from publication PMC12215964.

Chains of the proteins cited; added tags and fusions are not shown.
UniProt P19785: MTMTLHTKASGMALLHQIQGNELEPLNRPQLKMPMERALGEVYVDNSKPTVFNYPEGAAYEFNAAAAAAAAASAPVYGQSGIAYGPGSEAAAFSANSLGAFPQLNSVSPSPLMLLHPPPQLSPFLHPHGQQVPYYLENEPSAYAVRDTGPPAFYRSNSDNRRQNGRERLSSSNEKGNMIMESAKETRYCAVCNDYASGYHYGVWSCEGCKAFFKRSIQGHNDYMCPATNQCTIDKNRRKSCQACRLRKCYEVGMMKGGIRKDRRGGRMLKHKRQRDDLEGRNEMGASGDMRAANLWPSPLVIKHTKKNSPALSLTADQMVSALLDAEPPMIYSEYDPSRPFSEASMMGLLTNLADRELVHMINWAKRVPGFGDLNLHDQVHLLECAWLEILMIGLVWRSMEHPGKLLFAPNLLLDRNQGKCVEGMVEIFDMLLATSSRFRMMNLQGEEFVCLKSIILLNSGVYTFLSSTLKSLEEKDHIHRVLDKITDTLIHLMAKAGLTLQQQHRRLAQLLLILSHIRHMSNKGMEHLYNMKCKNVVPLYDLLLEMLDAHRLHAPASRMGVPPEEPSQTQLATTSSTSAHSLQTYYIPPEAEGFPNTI

Changes are numbered by the printed parent chain. No constants are given. Whether binding was seen depends on the method and setting. Binding seen in cells or lysates may run through a third protein. Some results given as binding are weak or reduced against the parent protein; the word gives no strength. Tags and fused reporters may be left off the sequences shown.

Test [1] has as its target T1, GFP- and HA-tagged mouse TENT5C LXXLL (3) motif mutant, LXXAA (TENT5C L3m) (mouse) (UniProt Q5SSF7).
T1 sequence: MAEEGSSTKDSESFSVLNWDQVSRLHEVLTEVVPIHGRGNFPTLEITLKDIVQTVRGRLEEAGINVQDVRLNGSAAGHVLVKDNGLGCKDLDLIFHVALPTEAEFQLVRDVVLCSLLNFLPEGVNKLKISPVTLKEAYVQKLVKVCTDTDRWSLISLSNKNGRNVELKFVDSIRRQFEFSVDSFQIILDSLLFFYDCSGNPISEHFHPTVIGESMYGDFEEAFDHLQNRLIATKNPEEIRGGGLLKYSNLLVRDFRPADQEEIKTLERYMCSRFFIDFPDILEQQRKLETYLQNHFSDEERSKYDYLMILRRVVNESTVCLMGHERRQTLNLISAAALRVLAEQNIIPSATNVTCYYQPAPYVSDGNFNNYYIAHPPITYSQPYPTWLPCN
In words: co-IP; HEK293T cells cotransfected; lysates in Pierce IP lysis buffer with protease inhibitors; GFP-tagged TENT5 proteins precipitated with GFP nanobody linked to Sepharose, 2 h at 4 °C; washed 5 times with HIP buffer (50 mM Tris-Cl, 150 mM NaCl, 1% Triton X-100); ERα in the precipitates detected by anti-ERα blot.

Test [2] deals with T2, GFP- and HA-tagged mouse terminal nucleotidyltransferase 5C (TENT5C) (mouse) (UniProt Q5SSF7).
T2 sequence: T1 sequence with A335L, A336L
Described as above.

For the substance “mouse estrogen receptor α (ERα) (from UniProt P19785 1-599)”, the binding result is recorded as “no binding” in test [1] and “binds” in test [2].
